Measurements reported in publication PMC11189575.

B1: Tpx (enzyme, UniProt P0A862 1-168)
chain: MSQTVHFQGNPVTVANSIPQAGSKAQTFTLVAKDLSDVTLGQFAGKRKVLNIFPSIDTGVCAASVRKFNQLATEIDNTVVLCISADLPFAQSRFCGAEGLNNVITLSTFRNAEFLQAYGVAIADGPLKGLAARAVVVIDENDNVIFSQLVDEITTEPDYEAALAVLKA
B2: BCP (enzyme, UniProt P0AE52 1-156)
chain: MNPLKAGDIAPKFSLPDQDGEQVNLTDFQGQRVLVYFYPKAMTPGCTVQACGLRDNMDELKKAGVDVLGISTDKPEKLSRFAEKELLNFTLLSDEDHQVCEQFGVWGEKSFMGKTYDGIHRISFLIDADGKIEHVFDDFKTSNHHDVVLNWLKEHA
B3: PAPR (enzyme, UniProt P17854 1-244)
chain: MSKLDLNALNELPKVDRILALAETNAELEKLDAEGRVAWALDNLPGEYVLSSSFGIQAAVSLHLVNQIRPDIPVILTDTGYLFPETYRFIDELTDKLKLNLKVYRATESAAWQEARYGKLWEQGVEGIEKYNDINKVEPMNRALKELNAQTWFAGLRREQSGSRANLPVLAIQRGVFKVLPIIDWDNRTIYQYLQKHGLKYHPLWDEGYLSVGDTHTTRKWEPGMAEEETRFFGLKRECGLHEG
B4: MsrA (enzyme, UniProt P0A744 1-212)
chain: MSLFDKKHLVSPADALPGRNTPMPVATLHAVNGHSMTNVPDGMEIAIFAMGCFWGVERLFWQLPGVYSTAAGYTGGYTPNPTYREVCSGDTGHAEAVRIVYDPSVISYEQLLQVFWENHDPAQGMRQGNDHGTQYRSAIYPLTPEQDAAARASLERFQAAMLAADDDRHITTEIANATPFYYAEDDHQQYLHKNPYGYCGIGGIGVCLPPEA

target: Trx1(C35A-Q62eFSY); assay: cross-linking; eFSY at site 62 of Trx1 in live E. coli; His-tag purification, biotin labelling, enrichment of cross-linked peptides, LC-MS/MS, search with AixUaa

Row | Binder | binding
1 | B1 | binds
2 | B2 | binds
3 | B3 | binds
4 | B4 | binds

These are yes or no findings as the source states them, for the method shown. In cells and extracts the contact can be indirect. A result given as binding can be weak or reduced; the word gives no strength.
